Test results reported in PMC12484798.
Results are given in words; binding and its absence hold for the method and conditions named. In cells and extracts the contact can be indirect. Some entries that bind do so weakly or less than the wild type.

Experiments:
[1] = molecular target: T1, TAF4A (mouse (endogenous in C2C12 and primary mouse MuSCs)) (UniProt E9QAP7); assay: co-IP; primary wild-type MuSC lysate in RIPA buffer (50 mM Tris-HCl pH 7.4, 150 mM NaCl, 1% NP-40, 0.1% sodium deoxycholate), briefly sonicated; anti-TAF4A antibody overnight at 4 °C, Dynabeads Protein G; Western blot for NF-YA or NF-YB
T1 sequence: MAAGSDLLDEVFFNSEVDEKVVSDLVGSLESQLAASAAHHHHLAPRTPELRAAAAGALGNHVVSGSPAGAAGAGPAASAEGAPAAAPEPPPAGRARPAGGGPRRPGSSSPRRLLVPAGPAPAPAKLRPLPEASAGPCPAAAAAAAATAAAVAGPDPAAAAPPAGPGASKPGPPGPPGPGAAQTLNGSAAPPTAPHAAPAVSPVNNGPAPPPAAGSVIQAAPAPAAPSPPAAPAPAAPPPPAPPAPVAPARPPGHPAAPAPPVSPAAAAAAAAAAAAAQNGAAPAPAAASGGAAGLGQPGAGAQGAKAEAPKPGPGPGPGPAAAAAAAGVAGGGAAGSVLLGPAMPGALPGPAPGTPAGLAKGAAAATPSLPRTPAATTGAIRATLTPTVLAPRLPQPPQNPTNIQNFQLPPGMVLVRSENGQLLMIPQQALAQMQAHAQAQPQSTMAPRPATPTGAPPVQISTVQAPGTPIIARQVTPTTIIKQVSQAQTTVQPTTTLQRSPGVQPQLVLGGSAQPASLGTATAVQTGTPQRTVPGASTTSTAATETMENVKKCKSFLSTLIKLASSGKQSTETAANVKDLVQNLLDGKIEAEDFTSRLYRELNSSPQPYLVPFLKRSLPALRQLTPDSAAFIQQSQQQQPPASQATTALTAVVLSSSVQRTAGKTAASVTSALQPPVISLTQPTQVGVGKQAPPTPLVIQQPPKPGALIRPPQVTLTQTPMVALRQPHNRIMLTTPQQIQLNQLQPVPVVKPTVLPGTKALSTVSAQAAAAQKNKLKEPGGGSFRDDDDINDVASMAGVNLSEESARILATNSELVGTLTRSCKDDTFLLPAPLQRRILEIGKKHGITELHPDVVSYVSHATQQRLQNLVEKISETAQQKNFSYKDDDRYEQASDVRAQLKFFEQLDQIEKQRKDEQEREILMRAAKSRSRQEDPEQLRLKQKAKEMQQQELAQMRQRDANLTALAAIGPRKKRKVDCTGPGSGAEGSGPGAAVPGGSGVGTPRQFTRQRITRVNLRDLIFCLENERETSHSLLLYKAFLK

[2] = molecular target: T1, TAF4A (mouse (endogenous in C2C12 and primary mouse MuSCs)); assay: co-IP; C2C12 cell lysate in RIPA buffer (50 mM Tris-HCl pH 7.4, 150 mM NaCl, 1% NP-40, 0.1% sodium deoxycholate), briefly sonicated; anti-TAF4A antibody overnight at 4 °C, Dynabeads Protein G; Western blot

binding [1]: binds
binding [2]: binds
B1: NF-YB (protein, UniProt P63139 1-207)
chain: MTMDGDSSTTDASQLGISADYIGGSHYVIQPHDDTEDSMNDHEDTNGSKESFREQDIYLPIANVARIMKNAIPQTGKIAKDAKECVQECVSEFISFITSEASERCHQEKRKTINGEDILFAMSTLGFDSYVEPLKLYLQKFREAMKGEKGIGGAVSATDGLSEELTEEAFTNQLPAGLITADGQQQNVMVYTTSYQQISGVQQIQFS
